Experiment: EPR spectra of flavonoid radicals (hyperfine coupling constants, linewidth, center field)
Settings: pH 11; for G value: flavonoid radical, simulated EPR spectrum

SMILES	center field (CF)	linewidth (LW)	G value
O=c1cc(-c2ccc(O)c(O)c2)oc2ccc(O)cc12 [6,3′,4′-trihydroxyflavone]	328.348 mT	0.02 mT	2.0002
O=c1cc(-c2ccc(O)c(O)c2)oc2cccc(O)c12 [5,3′,4′-trihydroxyflavone]	328.348 mT	0.02 mT	2.0002

Source: patent publication US20240122894A1, “METHODS TO SYNTHESIZE FLAVONOID DIMERS AND OLIGOMERS AND THE USE THEREOF” (National University of Singapore, priority 2020, published 2024)
